# Results published in PubChem BioAssay AID504834 (National Center for Advancing Translational Sciences (NCATS), 2011).
# Out of some 320,000 compounds screened, about 22,000 (6.9%) were called active. The inconclusive results got no clear call from the source; some entries with a clear call stand among them for comparison. The call rests on the fitted dose curve; in most records, active means well fitted inhibition curve with a large enough effect; inconclusive means small, poorly fitted or top-dose-only effect, or another doubt; inactive means no such curve, though single readings can be large or run the other way. Where the call is inconclusive, the potency comes from a doubtful curve fit.
# Assay: Primary qHTS for delayed death inhibitors of the malarial parasite plastid, 96 hour incubation
# Settings: P. falciparum luciferase reporter growth; series mostly up to 28.7 µM
# Outline: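 P. falciparum expressing integrated firefly luciferase grown in erythrocytes (2% hematocrit, 0.05% parasitemia final) with compounds for 96 hours at 37 C, 5% CO2. Growth inhibition read as loss of luminescence after adding luciferase detection reagent.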
# Potency means the concentration at half of the fitted maximal effect.
row,Structure (SMILES),Potency
1,Cc1ccc(C(C)C)cc1S(=O)(=O)Nc1cccnc1,inactive
2,Cc1ccc(CNC(=O)CCS(=O)(=O)c2ccc(Br)cc2)cc1,"inconclusive: 18.5 µM [inhibitor, single point]"
3,Cn1ccc(C(=O)OCC(=O)Nc2ccccc2Cl)n1,"inconclusive: 2.08 µM [inhibitor, partial curve, poor fit]"
4,CCOc1ccc(/C=N/NC(=O)C(O)c2ccccc2)c(O)c1 (centres undefined),inactive
5,Cc1cc(C)nc(/N=C(\N)Nc2ccc(SC(F)F)cc2)n1,active: 13.1 µM
6,Cc1ccc(C(=O)O)cc1NC(=O)CN1C(=O)C2C3c4ccccc4C(Br)(c4ccccc43)C2C1=O (centres undefined),"inconclusive: 13.1 µM [inhibitor, single point]"
7,COC(=O)c1c(NC(=O)CN2CCN(c3ccccc3)CC2)c2c(C)cccc2n1C,active: 5.86 µM
8,CC(OC(=O)c1ccc2ncsc2c1)C(=O)Nc1cccc(Cl)c1 (centres undefined),inactive
9,CC(C)(C)NC(=O)N1CCCC(C(=O)c2cccc(Cl)c2)C1 (centres undefined),"inconclusive: 11.7 µM [inhibitor, partial curve, poor fit]"
10,CCOC(=O)Cc1csc(NC(=O)COc2ccc(C)cc2)n1,inactive
11,Cc1n(CC(O)COC2CCCCC2)c2ccccc2[n+]1C (centres undefined),inactive
12,Cc1ccc(S(=O)(=O)NCC2CCC(C(=O)N3CCC4(CC3)OCCO4)CC2)cc1 (centres undefined),"inconclusive: 0.522 µM [inhibitor, full curve, poor fit]"
13,COc1ncnc2c1N=C1CC(C)(C)CC(N)=C1S2,"inconclusive: 2.33 µM [inhibitor, full curve, poor fit]"
14,Cc1cc(C)c2[nH]c(O)c(N=NC(=O)c3cc4c(s3)CCCC4)c2c1,"inconclusive: 3.7 µM [inhibitor, single point]"
15,CC(C)(C)NC(=O)c1cc(-c2ccc3c(c2)OCO3)nc2ccccc12,inactive
16,Cc1cc(Cl)ccc1NC(=O)CCC(=O)N/N=C/c1cc([N+](=O)[O-])ccc1O,"inconclusive: 10.4 µM [inhibitor, partial curve, poor fit]"
17,CCc1ccc(NC(=S)Nn2cnnc2)cc1,inactive
18,CCN(C(=O)COC(=O)c1c(C)c(-c2ccccc2)nc2ccccc12)C1CCS(=O)(=O)C1 (centres undefined),"inconclusive: 11.7 µM [inhibitor, single point]"
19,Cc1cccc(N2CCN(C(=O)CCCn3c(=S)[nH]c4cc5c(cc4c3=O)OCO5)CC2)c1C,inactive
20,Cn1c(=O)c2c(nc3sccn32)n(C)c1=O,inactive
21,N#Cc1cccc(NC(=O)CNc2cc(S(=O)(=O)N3CCOCC3)ccc2N2CCCC2)c1,"inconclusive: 18.5 µM [inhibitor, single point]"
22,Cn1c(CN2CCOCC2)nnc1SCc1ccc(C#N)cc1,"inconclusive: 7.38 µM [inhibitor, partial curve]"
23,Cc1cccc(NC(=O)NNC(=O)COc2ccc([N+](=O)[O-])cc2)c1C,"inconclusive: 20.8 µM [inhibitor, single point]"
24,COc1cc(C(=O)NCCc2cn3ccc(C)cc3n2)cc(OC)c1OC,"inconclusive: 13.1 µM [inhibitor, partial curve]"
25,CCCCOC(C)n1cc(F)c(=O)[nH]c1=O (centres undefined),"inconclusive: 4.15 µM [inhibitor, single point]"

row,Structure (SMILES),Potency
1,CCCN(Cc1ccc(N(C)C)cc1)CC1CC1,active: 2.08 µM
2,Cn1c(SCC(=O)N2CCOCC2)nnc1-c1cccc(NC(=O)c2ccccc2)c1,"inconclusive: 9.28 µM [inhibitor, single point]"
3,CN1C(=O)/C(=C/c2ccc(OCc3ccccc3F)cc2)N(C)C1=S,inactive
4,Cc1c(C(=O)N2CCN(c3ncccn3)CC2)sc2nc3n(c(=O)c12)CCCC3,inactive
5,Nc1nonc1C(=O)N/N=C/c1ccc(-c2cccc(C(=O)O)c2)o1,"inconclusive: 18.5 µM [inhibitor, single point]"
6,Cc1nc(-c2ccc(Br)cc2)ccc1C(=O)O,inactive
7,CCc1ccc(S(=O)(=O)NC(=S)NC2CCCCC2)cc1,"inconclusive: 11.7 µM [inhibitor, single point]"
8,CSc1ccccc1OCc1cc(C(=O)N(C)Cc2cnccn2)no1,"inconclusive: 16.5 µM [inhibitor, single point]"
9,CCCCn1c(N)c(N(CCOC)C(=O)c2ccc(-c3ccccc3)cc2)c(=O)[nH]c1=O,inactive
10,O=C(Nc1nc(-c2ccccc2)cs1)c1ccc(S(=O)(=O)N2CCc3ccccc32)cc1,"inconclusive: 18.5 µM [inhibitor, single point]"
11,C=CCNS(=O)(=O)c1ccc(N2C(=O)c3ccccc3C2=O)cc1,"inconclusive: 7.38 µM [inhibitor, single point]"
12,COc1ccc(-c2ccc(OC)c([C@H]3[C@H]4C=CC[C@@H](C)[C@@H]4C(=O)N3Cc3ccccc3)c2)cc1,"inconclusive: 8.28 µM [inhibitor, partial curve]"
13,CCOC(=O)c1c(NC(=O)CSc2nnc(-c3c[nH]c4ccccc34)n2CCOC)sc2c1CCCC2,active: 9.28 µM
14,Cc1nn(-c2ccccc2)c2c1C(c1ccc([N+](=O)[O-])cc1)N1C(=N2)C(=O)Nc2ccccc21 (centres undefined),active: 5.86 µM
15,COC(=O)C1=C(C)N(C2CCCCC2)C(=O)C1,active: 1.85 µM
16,Cc1c(C)c2ccc(O)c(CN3CCCC3)c2oc1=O,"inconclusive: 13.1 µM [inhibitor, partial curve, poor fit]"
17,CC1(C)Cc2c(sc(NC(=O)C(C)(C)C)c2C#N)C(C)(C)N1,active: 3.29 µM
18,CCC(C(=O)NC1CCCCCC1)n1nc(C)n2c(cc3occc32)c1=O (centres undefined),"inconclusive: 18.5 µM [inhibitor, single point]"
19,S=C(NCCc1ccccc1)Nc1ccc(Cl)cc1,inactive
20,CC12CCC(C(=O)NCc3ccccc3Cl)(OC1=O)C2(C)C (centres undefined),"inconclusive: 13.1 µM [inhibitor, single point]"
21,Cc1ccccc1/C=C\c1nc2ccccc2c(=O)[nH]1,inactive
22,COC(=O)C1=C(NC(=O)c2cccs2)CCS1,active: 9.28 µM
23,COc1cccc(C(C)NC(=S)NCc2ccc(Cl)cc2)c1 (centres undefined),"inconclusive: 1.65 µM [inhibitor, full curve, poor fit]"
24,Cc1ccccc1NC(=S)NC1CCCC1,"inconclusive: 13.1 µM [inhibitor, single point]"
25,c1ccc(Oc2nc(-c3ccccn3)nc3ccccc23)cc1,active: 1.31 µM

# Molecules above that contain a furan ring, fused or not:
row,Structure (SMILES),Potency
5,Nc1nonc1C(=O)N/N=C/c1ccc(-c2cccc(C(=O)O)c2)o1,"inconclusive: 18.5 µM [inhibitor, single point]"
18,CCC(C(=O)NC1CCCCCC1)n1nc(C)n2c(cc3occc32)c1=O (centres undefined),"inconclusive: 18.5 µM [inhibitor, single point]"

# Additional compounds follow.

row,Structure (SMILES),Potency
1,O=P(O)(O)CP(=O)(O)O,inactive
2,Cc1cccc(NC(=O)Cn2cnc3ccc(S(=O)(=O)N4CCC(C)CC4)cc3c2=O)n1,"inconclusive: 16.5 µM [inhibitor, single point]"
3,Cc1nc2cc(NC(=O)C3COc4ccccc4O3)ccc2s1 (centres undefined),inactive
4,CC1=C(C(=O)OC2CCCCC2)C(c2ccccc2)NC(=O)N1 (centres undefined),active: 9.28 µM
5,CCSc1nc2c(c(=O)[nH]1)C(c1cccnc1)C(C(=O)OC(C)C)=C(C)N2 (centres undefined),active: 1.31 µM
6,CCOc1ccc(NC(c2ccccc2)P(=O)(OC)OC)cc1 (centres undefined),"inconclusive: 11.7 µM [inhibitor, single point]"
7,COc1ccc(OC)c(-c2nnc(SCC(=O)N3CCCC3)o2)c1,inactive
8,Cc1ccc(C2CC(=O)NC(SCc3ccccc3)=C2C#N)cc1 (centres undefined),"inconclusive: 4.15 µM [inhibitor, single point]"
9,CCc1ccc(-c2nc(CS(=O)CC(=O)NC3CCCCCC3)c(C)o2)cc1 (centres undefined),active: 8.28 µM
10,COc1ccc(CNC(=O)C(=O)NCc2cccnc2)cc1,"inconclusive: 5.86 µM [inhibitor, partial curve]"
11,Cc1ccc(/C=N/NS(=O)(=O)c2ccc([N+](=O)[O-])cc2)o1,"inconclusive: 18.5 µM [inhibitor, partial curve, poor fit]"
12,Cc1ccc2cn[nH]c2c1NC(=S)NC(=O)c1ccccc1,inactive
13,O=c1c(Cc2ccc(Cl)cc2Cl)c(O)ccn1Cc1ccc(Cl)cc1,"inconclusive: 11.7 µM [inhibitor, partial curve]"
14,CC(=O)Nc1cccc(NC(=O)CSc2nc(=O)n(CCN3CCOCC3)c3c2CCCC3)c1,inactive
15,CCOC(=O)C(C)NC(=O)CCc1nnc2ccc(N3CCCCC3)nn12 (centres undefined),inactive
16,COc1ccc(N2CCN(C(=O)C3CCN(S(=O)(=O)c4c(C)noc4/C=C/N(C)C)CC3)CC2)cc1,"inconclusive: 18.5 µM [inhibitor, single point]"
17,Cc1cnc(NC(=O)CSc2nc3ccccc3s2)s1,inactive
18,Cc1ccc(S(=O)(=O)NCCSc2nnnn2-c2ccccc2)cc1,"inconclusive: 11.7 µM [inhibitor, partial curve, poor fit]"
19,O=C(COC(=O)c1ccccc1[N+](=O)[O-])c1ccc(C2CCCCC2)cc1,inactive
20,Cc1ccc(C(=O)Nc2cc([N+](=O)[O-])ccc2C)cc1,"inconclusive: 11.7 µM [inhibitor, partial curve, poor fit]"
21,O=C(/C=C/c1cccc([N+](=O)[O-])c1)NCCN1C(=O)S/C(=C\c2ccc(F)cc2)C1=O,"inconclusive: 10.4 µM [inhibitor, single point]"
22,O=C(COC(=O)[C@@H]1CC(O)CN1S(=O)(=O)c1ccc([N+](=O)[O-])cc1)NC12CC3CC(CC(C3)C1)C2 (some centres undefined),inactive
23,COc1ccccc1C(=O)NCCC(=O)N1CCN(S(=O)(=O)c2ccccc2C(F)(F)F)CC1,"inconclusive: 2.62 µM [inhibitor, full curve, poor fit]"
24,COc1ccccc1N1CCN(C(=O)c2noc(C(C)C)c2[N+](=O)[O-])CC1,active: 13.1 µM

# Rewritten as tab-separated lines: part of the list above
row	Structure (SMILES)	Potency
8	Cc1ccc(C2CC(=O)NC(SCc3ccccc3)=C2C#N)cc1 (centres undefined)	inconclusive: 4.15 µM [inhibitor, single point]
9	CCc1ccc(-c2nc(CS(=O)CC(=O)NC3CCCCCC3)c(C)o2)cc1 (centres undefined)	active: 8.28 µM
